PMC3315461

Target: T1, FLAG-tagged full-length Treacle (mouse Tcof1) (mouse) (UniProt O08784)
T1 sequence: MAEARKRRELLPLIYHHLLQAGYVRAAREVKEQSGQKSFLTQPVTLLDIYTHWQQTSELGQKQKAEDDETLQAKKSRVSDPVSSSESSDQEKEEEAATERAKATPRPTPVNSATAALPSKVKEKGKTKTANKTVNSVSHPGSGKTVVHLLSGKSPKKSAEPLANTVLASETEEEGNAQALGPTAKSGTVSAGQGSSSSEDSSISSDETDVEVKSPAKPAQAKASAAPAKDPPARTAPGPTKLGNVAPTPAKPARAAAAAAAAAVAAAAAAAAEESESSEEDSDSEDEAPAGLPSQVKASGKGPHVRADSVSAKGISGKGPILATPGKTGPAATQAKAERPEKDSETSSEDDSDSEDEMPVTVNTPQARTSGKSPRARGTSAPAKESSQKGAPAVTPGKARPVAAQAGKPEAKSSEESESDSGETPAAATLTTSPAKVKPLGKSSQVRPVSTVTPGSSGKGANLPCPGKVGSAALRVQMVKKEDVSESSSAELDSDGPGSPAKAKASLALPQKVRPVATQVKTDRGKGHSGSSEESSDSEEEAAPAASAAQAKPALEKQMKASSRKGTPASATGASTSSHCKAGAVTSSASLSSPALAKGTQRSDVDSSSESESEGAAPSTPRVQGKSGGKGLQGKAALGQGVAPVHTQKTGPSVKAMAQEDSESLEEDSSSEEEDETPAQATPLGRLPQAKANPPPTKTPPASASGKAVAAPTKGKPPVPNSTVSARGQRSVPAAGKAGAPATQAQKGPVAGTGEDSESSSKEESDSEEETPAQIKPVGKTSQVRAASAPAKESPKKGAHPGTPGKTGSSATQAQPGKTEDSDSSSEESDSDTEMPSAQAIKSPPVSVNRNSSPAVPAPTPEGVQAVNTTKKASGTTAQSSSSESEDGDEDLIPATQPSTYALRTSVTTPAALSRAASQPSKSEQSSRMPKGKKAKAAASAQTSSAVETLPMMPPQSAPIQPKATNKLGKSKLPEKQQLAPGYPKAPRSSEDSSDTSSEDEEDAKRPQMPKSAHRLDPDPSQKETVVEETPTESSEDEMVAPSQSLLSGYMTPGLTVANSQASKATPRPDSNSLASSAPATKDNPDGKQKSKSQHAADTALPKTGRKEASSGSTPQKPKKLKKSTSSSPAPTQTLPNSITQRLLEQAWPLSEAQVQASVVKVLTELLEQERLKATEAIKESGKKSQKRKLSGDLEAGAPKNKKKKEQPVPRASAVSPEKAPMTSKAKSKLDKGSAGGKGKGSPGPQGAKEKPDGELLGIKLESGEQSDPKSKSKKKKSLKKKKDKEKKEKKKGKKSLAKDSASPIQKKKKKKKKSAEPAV
Experiment: co-IP; HeLa cells transfected, synchronized by thymidine block, released 5 h, nocodazole (50 ng/ml) 14 h to obtain mitotic cells; lysis in 50 mM Tris-HCl pH 7.5, 150 mM NaCl, 1% NP-40, 5 mM EDTA; anti-FLAG agarose beads at 4°C overnight; elution with FLAG peptide; western blot with anti-HA, anti-PLK1 and anti-FLAG

binding: binds
Substance: HA-tagged C-terminal half of Plk1 (mouse) (domain or fragment)

Results are given in words; binding and its absence hold for the method and conditions named. Binding seen in cells or lysates may run through a third protein. A result given as binding can be weak or reduced; the word gives no strength. Tags and fused reporters may be left off the sequences shown.
